In patent US20240307439A1 one finds binding data, which are given here for 1 molecule.

No constants are given. Whether binding was seen depends on the method and setting. Some entries that bind do so weakly or less than the wild type.

The target in assay [1] is p26-binding CAR (af03). Nature of the assay: flow cytometry, CAR-transduced Jurkat cells incubated with 0.5 µg Adapter, stained with anti-HIS PE. A general note: A flow cytometer gives signals particle by particle.
Assay [2] has as its target p26-binding CAR (af03). Description: flow cytometry, af03-CAR Jurkat cells loaded with Adapter mixtures, then CD123-Fc and biotinylated BCMA.

B1: bc40-p26 Adapter (designed binder)
chain: DEHHHHHHHHHHKLENLYFQGGGGGSMGSWSEFWVRLGAIRERLDALGGSEAELAAFEKEIAAFESELQAYKGKGNPEVEKLRYTAATIRRFLQAYRHNGGGGSGGGGSGGGGSLEKCFQTENPLECQDKGEEELQKYIQESQALAKRSCGLFQKLGEYYLQNAFLVAYTKKAPQLTSSELMAITRKMAATAATCCQLSEDKLLACGEGAADIIIGHLCIRHEMTPVNPGVGQCCTSSYANRRPCFSSLVVDETYVPPAFSDDKFIFHKDLCQAQGVALQTMKQEFLINLVKQKPQITEEQLEAVIADFSGLLEKCCQGQEQEVCFAEEGQKLISKTRAALGV
Take B1: the binding entry in the assay with p26-binding CAR (af03) [1] and with p26-binding CAR (af03) [2] was “binds” throughout.
